One molecule from publication PMC9663509 can be followed below.

Protein sequences, listed by entry. Tags and fused reporters are not part of them.
UniProt P41240: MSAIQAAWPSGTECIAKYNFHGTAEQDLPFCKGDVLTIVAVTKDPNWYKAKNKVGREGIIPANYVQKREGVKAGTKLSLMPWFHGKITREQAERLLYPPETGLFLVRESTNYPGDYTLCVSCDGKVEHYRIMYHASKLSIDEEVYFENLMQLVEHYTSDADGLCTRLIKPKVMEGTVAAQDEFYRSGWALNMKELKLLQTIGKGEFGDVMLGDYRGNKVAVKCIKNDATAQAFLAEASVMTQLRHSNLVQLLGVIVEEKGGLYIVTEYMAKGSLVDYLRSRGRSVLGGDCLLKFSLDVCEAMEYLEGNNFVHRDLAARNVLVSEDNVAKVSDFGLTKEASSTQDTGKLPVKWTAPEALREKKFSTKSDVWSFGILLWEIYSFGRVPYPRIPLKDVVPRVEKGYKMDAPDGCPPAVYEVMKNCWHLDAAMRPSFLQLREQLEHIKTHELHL

The test addresses C-terminal Src kinase (CSK), FLAG-tagged (UniProt P41240). The experiment in a line: co-IP; HEK293T co-transfected with FLAG-CSK and HA-ACK1 or HA-kd-ACK1; lysates immunoprecipitated with CSK antibody, immunoblotted with ACK1 antibodies. (A western blot detects proteins with antibodies after separation by electrophoresis.)

No constants are given. Whether binding was seen depends on the method and setting. Binding seen in cells or lysates may run through a third protein. Tags and fused reporters may be left off the sequences shown.

B1: kinase-dead mutant (K158R) of ACK1, HA-tagged (enzyme, UniProt Q07912 1-1038)
chain: MQPEEGTGWLLELLSEVQLQQYFLRLRDDLNVTRLSHFEYVKNEDLEKIGMGRPGQRRLWEAVKRRKALCKRKSWMSKVFSGKRLEAEFPPHHSQSTFRKTSPAPGGPAGEGPLQSLTCLIGEKDLRLLEKLGDGSFGVVRRGEWDAPSGKTVSVAVRCLKPDVLSQPEAMDDFIREVNAMHSLDHRNLIRLYGVVLTPPMKMVTELAPLGSLLDRLRKHQGHFLLGTLSRYAVQVAEGMGYLESKRFIHRDLAARNLLLATRDLVKIGDFGLMRALPQNDDHYVMQEHRKVPFAWCAPESLKTRTFSHASDTWMFGVTLWEMFTYGQEPWIGLNGSQILHKIDKEGERLPRPEDCPQDIYNVMVQCWAHKPEDRPTFVALRDFLLEAQPTDMRALQDFEEPDKLHIQMNDVITVIEGRAENYWWRGQNTRTLCVGPFPRNVVTSVAGLSAQDISQPLQNSFIHTGHGDSDPRHCWGFPDRIDELYLGNPMDPPDLLSVELSTSRPPQHLGGVKKPTYDPVSEDQDPLSSDFKRLGLRKPGLPRGLWLAKPSARVPGTKASRGSGAEVTLIDFGEEPVVPALRPCAPSLAQLAMDACSLLDETPPQSPTRALPRPLHPTPVVDWDARPLPPPPAYDDVAQDEDDFEICSINSTLVGAGVPAGPSQGQTNYAFVPEQARPPPPLEDNLFLPPQGGGKPPSSAQTAEIFQALQQECMRQLQAPAGSPAPSPSPGGDDKPQVPPRVPIPPRPTRPHVQLSPAPPGEEETSQWPGPASPPRVPPREPLSPQGSRTPSPLVPPGSSPLPPRLSSSPGKTMPTTQSFASDPKYATPQVIQAPGPRAGPCILPIVRDGKKVSSTHYYLLPERPSYLERYQRFLREAQSPEEPTPLPVPLLLPPPSTPAPAAPTATVRPMPQAALDPKANFSTNNSNPGARPPPPRATARLPQRGCPGDGPEAGRPADKIQMAMVHGVTTEECQAALQCHGWSVQRAAQYLKVEQLFGLGLRPRGECHKVLEMFDWNLEQAGCHLLGSWGPAHHKR
On to B1, for which the binding entry was “no binding”.
